PubChem BioAssay AID194 (DTP/NCI, 2004)
The list shows only some results of the screen, not a fair sample: it gathers tests that were run many times, whatever their T/C, doses with no T/C, and many T/C values between a quarter and a half above the control. Other doses and runs of a compound stand elsewhere. T/C: endpoint of the treated group in % of that of the vehicle group. Some entries give survivors of the animals treated and no T/C: the source holds a T/C of zero for them, seemingly a mark for toxic or unscored doses. Some survivor counts are full or nearly so, which does not show that the dose was tolerated: survival well below the control is almost never listed, so the zero probably covers shortened survival too. Counts of survivors are from the toxicity check (mostly the fifth day) where no day follows; animals may have died later. Schedule codes are those of the source, read here as Q, the interval in days (D) or hours (H), X, the number of doses. Some entries hold several experiments; their values stand side by side, smallest first. For survival time, this PubChem deposit counts one and a half times the control or more as active, and values a quarter to a half above the control carry no call in these data; other NCI protocols may use other cut-offs. Some T/C values carry the count of animals alive at the toxicity check (mostly the fifth day); without a count, all were alive then. Marks such as (2×) give the number of equal values in this list.

Test system: BDF1 mice, B16 melanoma s.c., survival/tumor T/C
Assay: NCI In Vivo Anticancer Drug Screen. Data for tumor model B16 Melanoma (subcutaneous) in B6D2F1 (BDF1) mice
Experimental: The antitumor activity of compounds was measured in mice bearing transplantable tumors. Survival or tumor size were measured and the results are expressed as the measurement made in the treated group (T) divided by the measurement made in the vehicle treated control group (C). The tumor model used in this assay is B16 Melanoma (subcutaneous) in B6D2F1 (BDF1) mice

[1] = T/C endpoint: median survival time, dose: 25.0 mg/kg/injection, schedule: Q01DX009 (ip), vehicle: saline, higher T/C = longer survival
[2] = T/C endpoint: median survival time, dose: 100.0 mg/kg/injection, schedule: Q01DX009 (ip), vehicle: saline, higher T/C = longer survival
[3] = T/C endpoint: median survival time, dose: 200.0 mg/kg/injection, schedule: Q01DX009 (ip), vehicle: saline, higher T/C = longer survival

## CCCCNCCCNCCCNC(=O)c1csc(-c2csc(CCNC(=O)C(NC(=O)C(C)C(O)C(C)NC(=O)C(NC(=O)c3nc(C(CC(N)=O)NCC(N)C(N)=O)nc(N)c3C)C(OC3OC(CO)C(O)C(O)C3OC3OC(CO)C(O)C(OC(N)=O)C3O)c3cnc[nH]3)C(C)O)n2)n1 (stereo not drawn)
T/C endpoint: median survival time, dose: 1.25 mg/kg/injection, schedule: Q01DX009 (ip), vehicle: water, higher T/C = longer survival
  T/C: 130 % of control
T/C endpoint: median survival time, dose: 2.5 mg/kg/injection, schedule: Q01DX009 (ip), vehicle: water, higher T/C = longer survival
  T/C: 127 % of control
T/C endpoint: median survival time, dose: 5.0 mg/kg/injection, schedule: Q01DX009 (ip), vehicle: water, higher T/C = longer survival
  T/C: 137 % of control

## O=c1[nH]c(=O)n(C2CC(O)C(CO)O2)cc1F (stereo not drawn)
[1]
  T/C: 92, 102, 103, 112, 115 % of control
  survivor count: 6 of 6
T/C endpoint: median survival time, dose: 50.0 mg/kg/injection, schedule: Q01DX009 (ip), vehicle: saline with Tween-80, higher T/C = longer survival
  T/C: 127 % of control [5 of 6 alive]
T/C endpoint: median survival time, dose: 50.0 mg/kg/injection, schedule: Q01DX009 (ip), vehicle: saline, higher T/C = longer survival
  T/C: 100 (2×), 105, 110, 119, 123 % of control
[2]
  T/C: 97, 100 [5 of 6 alive], 105, 109, 126 % of control
  survivor count: 6 of 6
T/C endpoint: median survival time, dose: 100.0 mg/kg/injection, schedule: Q04DX003 (ip), vehicle: saline, higher T/C = longer survival
  survivor count: 6 of 6
[3]
  T/C: 97 % of control
  survivor count: 6 of 6
T/C endpoint: median tumor weight (est.), dose: 200.0 mg/kg/injection, schedule: Q01DX009 (ip), vehicle: saline with Tween-80, higher T/C = larger tumour
  survivor count: 3 of 6

## COC(=O)C(N)CCCCNc1ccc2c(cc1=O)C(NC(C)=O)CCc1cc(OC)c(OC)c(OC)c1-2 (stereo not drawn)
T/C endpoint: median survival time, dose: 35.0 mg/kg/injection, schedule: Q01DX009 (ip), vehicle: saline, higher T/C = longer survival
  T/C: 129 % of control

## O=[N+]([O-])c1ccc(/C=N/c2ncc(Br)s2)o1
T/C endpoint: median survival time, dose: 12.5 mg/kg/injection, schedule: Q01DX009 (ip), vehicle: Klucel (hydroxypropylcellulose) (HPC), higher T/C = longer survival
  T/C: 126 % of control
T/C endpoint: median survival time, dose: 25.0 mg/kg/injection, schedule: Q01DX009 (ip), vehicle: Klucel (hydroxypropylcellulose) (HPC), higher T/C = longer survival
  survivor count: 5 of 10

## CCN(CC)CCCC(C)Nc1c2ccc(Cl)cc2nc2ccc(OC)cc12 (stereo not drawn)
T/C endpoint: median survival time, dose: 8.0 mg/kg/injection, schedule: Q01DX009 (ip), vehicle: saline with Tween-80, higher T/C = longer survival
  T/C: 139 % of control
T/C endpoint: median survival time, dose: 128.0 mg/kg/injection, schedule: Q01DX009 (ip), vehicle: saline with Tween-80, higher T/C = longer survival
  survivor count: 8 of 10
T/C endpoint: median survival time, dose: 128.0 mg/kg/injection, schedule: Q01DX009 (ip), vehicle: saline, higher T/C = longer survival
  survivor count: 9 of 10
T/C endpoint: median survival time, dose: 256.0 mg/kg/injection, schedule: Q01DX009 (ip), vehicle: saline with Tween-80, higher T/C = longer survival
  survivor count: 0 of 10 and 2 of 10
T/C endpoint: median survival time, dose: 256.0 mg/kg/injection, schedule: Q01DX009 (ip), vehicle: saline, higher T/C = longer survival
  survivor count: 1 of 10
T/C endpoint: median survival time, dose: 256.0 mg/kg/injection, schedule: Q01DX009 (ip), vehicle: suspension in saline, higher T/C = longer survival
  survivor count: 1 of 10

## C[C@H](CN1CC(=O)NC(=O)C1)N1CC(=O)NC(=O)C1
T/C endpoint: median survival time, dose: 8.0 mg/kg/injection, schedule: Q01DX009 (ip), vehicle: water, higher T/C = longer survival
  T/C: 131 % of control
T/C endpoint: median survival time, dose: 64.0 mg/kg/injection, schedule: Q01DX009 (ip), vehicle: saline, higher T/C = longer survival
  T/C: 136 % of control
T/C endpoint: median survival time, dose: 64.0 mg/kg/injection, schedule: Q01DX009 (ip), vehicle: water, higher T/C = longer survival
  survivor count: 10 of 10
T/C endpoint: median survival time, dose: 128.0 mg/kg/injection, schedule: Q01DX009 (ip), vehicle: water, higher T/C = longer survival
  survivor count: 9 of 10
T/C endpoint: median survival time, dose: 400.0 mg/kg/injection, schedule: Q04DX003 (ip), vehicle: saline, higher T/C = longer survival
  T/C: 128 % of control

## COc1cc(NS(C)(=O)=O)ccc1Nc1c2ccccc2nc2ccccc12
T/C endpoint: median survival time, dose: 4.0 mg/kg/injection, schedule: Q01DX009 (ip), vehicle: other, higher T/C = longer survival
  survivor count: 10 of 10
T/C endpoint: median survival time, dose: 8.0 mg/kg/injection, schedule: Q01DX009 (ip), vehicle: other, higher T/C = longer survival
  survivor count: 9 of 10

## COC(=O)[C@@H]1c2cc3c(c(O)c2[C@@H](OC2OC(C)C(OC)C(C)(OC)C2OC)C[C@]1(C)O)C(=O)c1c(O)cc2c(c1C3=O)O[C@H]1O[C@]2(C)[C@H](O)[C@@H](N(C)C)[C@@H]1O (stereo partly drawn)
T/C endpoint: median survival time, dose: 1.0 mg/kg/injection, schedule: Q01DX009 (ip), vehicle: other, higher T/C = longer survival
  survivor count: 7 of 10
T/C endpoint: median survival time, dose: 2.0 mg/kg/injection, schedule: Q01DX009 (ip), vehicle: other, higher T/C = longer survival
  survivor count: 9 of 10
T/C endpoint: median survival time, dose: 250.0 micrograms/kg/injection, schedule: Q01DX009 (ip), vehicle: saline + alcohol, higher T/C = longer survival
  T/C: 144 % of control

## CC1(C)N=C(N)N=C(N)N1c1ccc(OCC(=O)N2CCOCC2)c(Cl)c1
[1]
  T/C: 126 % of control
[3]
  survivor count: 4 of 6

## O=c1[nH]c(=O)n([C@H]2CCCO2)cc1F
T/C endpoint: median survival time, dose: 108.0 mg/kg/injection, schedule: Q01DX009 (ip), vehicle: saline, higher T/C = longer survival
  survivor count: 10 of 10
T/C endpoint: median survival time, dose: 300.0 mg/kg/injection, schedule: Q04DX003 (ip), vehicle: saline, higher T/C = longer survival
  survivor count: 10 of 10
T/C endpoint: median survival time, dose: 500.0 mg/kg/injection, schedule: Q04DX003 (ip), vehicle: saline, higher T/C = longer survival
  survivor count: 10 of 10
T/C endpoint: median survival time, dose: 833.0 mg/kg/injection, schedule: Q04DX003 (ip), vehicle: saline, higher T/C = longer survival
  survivor count: 10 of 10
